Some of these results come from one statement about several compounds together. For at least one compound, name, drawing or mass did not settle the structure.
System: Western Flower Thrips (Frankliniella occidentalis Pergande)
Test: Test G: control of Western Flower Thrips on sprayed bean plant
Type: in vivo
Details: sprayed at 250 ppm; adult thrips; 7 days

Structure (SMILES) | control efficacy (plant damage) [%]
CCC#CCn1ncc(-c2ccc(C(F)(F)F)cc2)n1 [Compound 103, 2-(2-Pentyn-1-yl)-4-[4-(trifluoromethyl)phenyl]-2H-1,2,3-triazole] | ≤ 20
CCC#CCn1ncc(-c2ccc(C(F)(F)F)cn2)n1 [Compound 124, 2-[2-(2-Pentyn-1-yl)-2H-1,2,3-triazol-4-yl]-5-(trifluoromethyl)pyridine] | ≤ 20
CC(C)(C)C#CCn1ncc(-c2ccc(C(F)(F)F)cc2)n1 [Compound 138] | ≤ 20
CC(C)C#CCn1ncc(-c2ccc(C(F)(F)F)cc2)n1 [Compound 139] | ≤ 20
CCC#CCn1nnc(-c2cc(F)c(F)c(F)c2)n1 [Compound 313, 2-(2-Pentyn-1-yl)-5-(3,4,5-trifluorophenyl)-2H-tetrazole] | ≤ 20
CCC#CCn1nnc(-c2cc(F)c(C(F)(F)F)c(F)c2)n1 [Compound 315] | ≤ 20

System: Diamond Back Moth (Plutella xylostella L.)
Test: Test A: control of Diamond Back Moth on sprayed mustard plant
Type: in vivo
Details: sprayed at 50 ppm; neonate larvae; 6 days

Structure (SMILES) | control efficacy (feeding damage) [%]
CCC#CCn1nnc(-c2cccc(NC(=O)C3CC3)c2)n1 [Compound 248] | ≤ 20
CCC#CCn1ncc(-c2cc(C#N)cc(OC)c2)n1 [Compound 257] | ≤ 20
CCC#CCn1nnc(-c2cc(F)c(C(F)(F)F)c(F)c2)n1 [Compound 315] | ≤ 20

Same assay, conditions: sprayed at 250 ppm; neonate larvae; 6 days

Structure (SMILES) | control efficacy (feeding damage) [%]
CCC#CCn1nnc(-c2ccc(-n3cncn3)cc2)n1 [Compound 30] | ≤ 20
CCC#CCn1nnc(-c2ccc(I)cc2)n1 [Compound 32] | ≤ 20
CCC#CCn1nnc(-c2ccc(C#N)cc2)n1 [Compound 33] | ≤ 20
CCC#CCn1nnc(-c2ccc(C(F)(F)F)cc2F)n1 [Compound 43] | ≤ 20
CCC#CCn1nnc(-c2ccc(S(F)(F)(F)(F)F)cc2)n1 [Compound 44] | ≤ 20
CCC#CCn1nnc(-c2cccc(C(F)(F)F)c2)n1 [Compound 53] | ≤ 20
CCC#CCn1nnc(-c2ccc(OC(F)(F)F)cc2)n1 [Compound 66] | ≤ 20
CCC#CCn1nc(Cl)c(-c2ccc(C(F)(F)F)cc2)n1 [Compound 78] | ≤ 20
CCC#CCn1nc(I)c(-c2ccc(C(F)(F)F)cc2)n1 [Compound 79] | ≤ 20
CCC#CCn1nnc(-c2ccc(C(F)(F)F)c(F)c2)n1 [Compound 192] | ≤ 20
CCC#CCn1cc(-c2cc(Cl)cc(Cl)c2)nn1 [Compound 201] | ≤ 20
CCC#CCn1nnc(-c2cccc(NC(=O)OC(C)(C)C)c2)n1 [Compound 245] | ≤ 20
CCC#CCn1cc(-c2cc(C#N)cc(OC)c2)nn1 [Compound 258] | ≤ 20
CCC#CCn1ncc(-c2cc(C)cc(C(F)(F)F)c2)n1 [Compound 267] | ≤ 20
CCC#CCn1nnc(-c2ccc(C(F)(F)F)cc2Cl)n1 [Compound 284] | ≤ 20
CCC#CCn1nnc(-c2ccc(C(F)(F)F)cc2Br)n1 [Compound 285] | ≤ 20
CCC#CCn1nnc(-c2cc(F)cc(C(F)(F)F)c2)n1 [Compound 292] | ≤ 20
CCC#CCn1nnc(-c2ccc(C#N)c(C)c2)n1 [Compound 329] | ≤ 20
CCC#CCn1cc(-c2ccc(SC(F)(F)F)cc2)nn1 [Compound 332] | ≤ 20
CCC#CCn1ncc(-c2ccc(SC(F)(F)F)cc2)n1 [Compound 333] | ≤ 20
CCC#CCn1nnc(-c2ccc(S(F)(F)F)cc2)n1 [Compound 338] | ≤ 20

Reference: US20250002476A1, “AZOLE COMPOUNDS FOR CONTROLLING INVERTEBRATE PESTS” (FMC Corporation, priority 2021, published 2025)
